These are yes or no findings as the source states them, for the method shown. Binding seen in cells or lysates may run through a third protein. Here binding means that the protein was enriched with, or labelled near, the bait; the list need not be complete.
Biological target: T1, PHLPP2 (PH-domain leucine-rich-repeat protein phosphatase 2), endogenous (human (endogenous in D54)) (UniProt Q6ZVD8)
T1 sequence: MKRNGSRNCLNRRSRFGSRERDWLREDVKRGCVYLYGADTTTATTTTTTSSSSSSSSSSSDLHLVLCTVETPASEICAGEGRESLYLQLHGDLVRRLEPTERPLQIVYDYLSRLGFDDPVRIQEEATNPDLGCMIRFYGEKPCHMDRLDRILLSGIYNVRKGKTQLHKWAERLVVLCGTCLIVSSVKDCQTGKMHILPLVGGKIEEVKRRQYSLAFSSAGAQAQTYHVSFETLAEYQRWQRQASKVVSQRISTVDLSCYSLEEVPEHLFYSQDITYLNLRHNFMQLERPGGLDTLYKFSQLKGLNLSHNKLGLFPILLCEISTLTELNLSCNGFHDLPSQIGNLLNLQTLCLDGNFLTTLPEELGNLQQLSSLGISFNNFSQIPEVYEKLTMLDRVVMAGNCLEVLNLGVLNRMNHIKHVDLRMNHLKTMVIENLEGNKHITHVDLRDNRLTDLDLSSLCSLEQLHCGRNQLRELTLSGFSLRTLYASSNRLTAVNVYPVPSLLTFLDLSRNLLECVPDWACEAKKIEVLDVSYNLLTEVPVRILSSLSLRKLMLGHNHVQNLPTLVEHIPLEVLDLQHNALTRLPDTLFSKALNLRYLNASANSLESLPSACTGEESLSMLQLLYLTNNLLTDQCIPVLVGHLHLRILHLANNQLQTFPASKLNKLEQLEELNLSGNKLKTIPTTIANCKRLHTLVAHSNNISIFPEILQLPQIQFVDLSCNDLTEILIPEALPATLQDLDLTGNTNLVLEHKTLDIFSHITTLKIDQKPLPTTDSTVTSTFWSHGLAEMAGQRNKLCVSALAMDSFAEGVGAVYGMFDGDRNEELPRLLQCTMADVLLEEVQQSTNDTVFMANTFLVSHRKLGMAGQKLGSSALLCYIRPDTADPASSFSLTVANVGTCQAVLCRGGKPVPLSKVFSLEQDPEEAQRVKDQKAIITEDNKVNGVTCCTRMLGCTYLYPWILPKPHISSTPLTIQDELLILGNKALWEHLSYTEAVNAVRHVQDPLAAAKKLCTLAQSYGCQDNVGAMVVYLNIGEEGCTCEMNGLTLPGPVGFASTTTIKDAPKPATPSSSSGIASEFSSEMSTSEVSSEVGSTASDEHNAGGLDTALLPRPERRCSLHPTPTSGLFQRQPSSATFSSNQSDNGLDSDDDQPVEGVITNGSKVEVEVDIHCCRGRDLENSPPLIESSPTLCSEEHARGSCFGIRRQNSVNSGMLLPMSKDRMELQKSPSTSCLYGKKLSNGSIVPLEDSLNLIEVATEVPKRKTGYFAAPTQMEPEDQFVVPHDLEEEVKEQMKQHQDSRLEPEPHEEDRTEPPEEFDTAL
Assay: affinity purification with mass spectrometry; immunoprecipitation of endogenous PHLPP2 from D54 cells, silver stain, LC-MS/MS

binding: binds
B1: IKKβ, endogenous (protein, UniProt O14920 1-756)
chain: MSWSPSLTTQTCGAWEMKERLGTGGFGNVIRWHNQETGEQIAIKQCRQELSPRNRERWCLEIQIMRRLTHPNVVAARDVPEGMQNLAPNDLPLLAMEYCQGGDLRKYLNQFENCCGLREGAILTLLSDIASALRYLHENRIIHRDLKPENIVLQQGEQRLIHKIIDLGYAKELDQGSLCTSFVGTLQYLAPELLEQQKYTVTVDYWSFGTLAFECITGFRPFLPNWQPVQWHSKVRQKSEVDIVVSEDLNGTVKFSSSLPYPNNLNSVLAERLEKWLQLMLMWHPRQRGTDPTYGPNGCFKALDDILNLKLVHILNMVTGTIHTYPVTEDESLQSLKARIQQDTGIPEEDQELLQEAGLALIPDKPATQCISDGKLNEGHTLDMDLVFLFDNSKITYETQISPRPQPESVSCILQEPKRNLAFFQLRKVWGQVWHSIQTLKEDCNRLQQGQRAAMMNLLRNNSCLSKMKNSMASMSQQLKAKLDFFKTSIQIDLEKYSEQTEFGITSDKLLLAWREMEQAVELCGRENEVKLLVERMMALQTDIVDLQRSPMGRKQGGTLDDLEEQARELYRRLREKPRDQRTEGDSQEMVRLLLQAIQSFEKKVRVIYTQLSKTVVCKQKALELLPKVEEVVSLMNEDEKTVVRLQEKRQKELWNLLKIACSKVRGPVSGSPDSMNASRLSQPGQLMSQPSTASNSLPEPAKKSEELVAEAHNLCTLLENAIQDTVREQDQSFTALDWSWLQTEEEEHSCLEQAS

Source: PMC3996652
